Values of other authors in patent US20130040036A1, “Shelf Stable, Low Water Liquid Beverage Concentrates And Methods Of Making The Same” (priority 2011, published 2013).
Some of these results come from one statement about several compounds together. At least one structure is not confirmed: it was looked up by name or label, or the drawing left a doubt.

Details: increased rate of degradation at lower or higher pH; cited from earlier work

COC(=O)[C@H](Cc1ccccc1)NC(=O)[C@H](CC(=O)O)NCCC(C)(C)C [neotame]
pH of greatest stability: 4-4.5
